From publication PMC10491434, “SPOP targets the immune transcription factor IRF1 for proteasomal degradation” (eLife, 2023)
These are yes or no findings as the source states them, for the method shown. In cells and extracts the contact can be indirect. Some entries that bind do so weakly or less than the wild type.

The chains behind the UniProt entries cited, without tags or fusion partners.
UniProt O43791: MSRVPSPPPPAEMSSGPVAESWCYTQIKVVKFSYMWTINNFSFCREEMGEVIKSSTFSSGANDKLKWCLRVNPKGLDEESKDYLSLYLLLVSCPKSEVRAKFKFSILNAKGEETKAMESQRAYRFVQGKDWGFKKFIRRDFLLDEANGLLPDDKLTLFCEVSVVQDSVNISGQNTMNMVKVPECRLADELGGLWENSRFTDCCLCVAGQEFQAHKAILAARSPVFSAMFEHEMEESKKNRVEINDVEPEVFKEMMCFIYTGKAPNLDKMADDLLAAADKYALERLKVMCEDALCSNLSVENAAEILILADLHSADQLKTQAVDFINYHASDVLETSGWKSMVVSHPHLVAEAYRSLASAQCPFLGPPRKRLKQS

B1: wild-type interferon regulatory factor 1 (wtIRF1) (protein, UniProt P10914 1-325)
chain: MPITRMRMRPWLEMQINSNQIPGLIWINKEEMIFQIPWKHAAKHGWDINKDACLFRSWAIHTGRYKAGEKEPDPKTWKANFRCAMNSLPDIEEVKDQSRNKGSSAVRVYRMLPPLTKNQRKERKSKSSRDAKSKAKRKSCGDSSPDTFSDGLSSSTLPDDHSSYTVPGYMQDLEVEQALTPALSPCAVSSTLPDWHIPVEVVPDSTSDLYNFQVSPMPSTSEATTDEDEEGKLPEDIMKLLEQSEWQPTNVDGKGYLLNEPGVQPTSVYGDFSCKEEPEIDSPGGDIGLSLQRVFTDLKNMDATWLDSLLTPVRLPSIQAIPCAP
B2: IRF1-SBDmut (IRF1 mutant in which the S/T residues in the four SPOP binding domains were mutated to A) (protein, UniProt P10914 1-325)
chain: MPITRMRMRPWLEMQINSNQIPGLIWINKEEMIFQIPWKHAAKHGWDINKDACLFRSWAIHTGRYKAGEKEPDPKTWKANFRCAMNSLPDIEEVKDQSRNKGSSAVRVYRMLPPLTKNQRKERKSKSSRDAKSKAKRKSCGDSSPDTFSDGLSAAALPDDHSSYTVPGYMQDLEVEQALTPALSPCAVAAALPDWHIPVEVVPDAAADLYNFQVSPMPAAAEATTDEDEEGKLPEDIMKLLEQSEWQPTNVDGKGYLLNEPGVQPTSVYGDFSCKEEPEIDSPGGDIGLSLQRVFTDLKNMDATWLDSLLTPVRLPSIQAIPCAP

What was measured:
[1] = molecular target: T1, wild-type interferon regulatory factor 1 (wtIRF1) (human) (UniProt P10914); assay: co-IP; IRF1 precipitated with anti-IRF1 antibody and Protein A/G magnetic beads from lysates of transfected HEK-293T cells (36 hr post-transfection, epoxomicin 4 hr); Frackelton lysis buffer, overnight at 4°C, washes with RIPA buffer with 300 mM NaCl; western blot for SPOP
T1 sequence: B1 chain

[2] = molecular target: T2, IRF1-SBDmut (IRF1 mutant in which the S/T residues in the four SPOP binding domains were mutated to A) (human) (UniProt P10914); assay: as above
T2 sequence: B2 chain

[3] = molecular target: Ollas-tagged wild-type speckle type BTB/POZ protein (wtSPOP) (UniProt O43791); assay: co-IP; SPOP precipitated with anti-Ollas antibody and Protein G Sepharose from lysates of transfected HEK-293T cells (36 hr post-transfection, epoxomicin 4 hr); Frackelton lysis buffer, overnight at 4°C, washes with RIPA buffer with 300 mM NaCl; western blot for IRF1

Molecule | binding [1] | binding [2] | binding [3]
Ollas-tagged wild-type speckle type BTB/POZ protein (wtSPOP) (from UniProt O43791 1-374) | binds | no binding | 
B1 |  |  | binds
B2 |  |  | no binding
